PubChem BioAssay AID602196 – INSERM | 2012

Assay: 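Modifiers of cisplatin sensitivity in A549 cells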
Cell system: human A549 lung cancer cells
Reagent: siRNA pair against human genes
Time to read-out: 48 h transfection before cisplatin; time from cisplatin to read-out not stated
Challenge: cisplatin at a dose killing half of control-siRNA cells; exact dose and duration not given
Detection: 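Shift in cisplatin death relative to control siRNA, from -50 (all cells die) to +50 (no cells die); siRNAs harmful on their own scored 0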
Reading the numbers: two-siRNA summed score (-2 to +2): higher = both siRNAs protect from cisplatin killing; -2 means both sensitise; mean protection from cisplatin (shift in death): higher = protection from cisplatin killing
Hit rule: 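Each siRNA scores 0 if harmful alone by LDH or WST-1, otherwise +1 if it reduces and -1 if it increases cisplatin killing; a gene is active when both siRNAs agree (sum +2 or -2)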
Calls: active = both siRNAs shift cisplatin killing the same way; inactive = no consistent shift, or siRNA harmful alone
This is a random part of about 23,000 reagents. 455 of them (2%) count as active. 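Active includes both protection and sensitisation; some change values fall well beyond the stated -50 to +50 range.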 The numbers tell different reagents against one gene apart. Further read-outs or replicates are left out here. Not given: the amount of reagent.

For TOGARAM2, the values are two-siRNA summed score (-2 to +2) = 1; mean protection from cisplatin (shift in death) (%) = 15.7; inactive.
Against LOC441713, the entry reads two-siRNA summed score (-2 to +2) = 1; mean protection from cisplatin (shift in death) (%) = 7.2; inactive.
For KANK1, the entry reads two-siRNA summed score (-2 to +2) = -1; mean protection from cisplatin (shift in death) (%) = -9.6; inactive.
Knock-down of FOXO1 came out at: two-siRNA summed score (-2 to +2) = 0; mean protection from cisplatin (shift in death) (%) = 1.2; inactive.
For LOC440608 the deposit lists two-siRNA summed score (-2 to +2) = 0; mean protection from cisplatin (shift in death) (%) = 1.1; inactive.
For LOC442165 the deposit lists two-siRNA summed score (-2 to +2) = -1; mean protection from cisplatin (shift in death) (%) = -2.3; inactive.
METTL5 gave two-siRNA summed score (-2 to +2) = 0; mean protection from cisplatin (shift in death) (%) = -11.6; inactive.
Silencing of ROCK2 came out at: two-siRNA summed score (-2 to +2) = 0; mean protection from cisplatin (shift in death) (%) = 6.2; inactive.
CHD6 scored two-siRNA summed score (-2 to +2) = 0; mean protection from cisplatin (shift in death) (%) = 2.4; inactive.
Depletion of LOC440835 came out at: two-siRNA summed score (-2 to +2) = 0; mean protection from cisplatin (shift in death) (%) = 5.5; inactive.
Against GBF1, the values are two-siRNA summed score (-2 to +2) = 0; mean protection from cisplatin (shift in death) (%) = 6.7; inactive.
GAD1 scored two-siRNA summed score (-2 to +2) = -1; mean protection from cisplatin (shift in death) (%) = 8.3; inactive.
Silencing of RAB13 came out at: two-siRNA summed score (-2 to +2) = 0; mean protection from cisplatin (shift in death) (%) = 1.9; inactive.
Against GSK3B, the values are two-siRNA summed score (-2 to +2) = 0; mean protection from cisplatin (shift in death) (%) = 0.6; inactive.
After knock-down of CEP55, the screen gave two-siRNA summed score (-2 to +2) = 0; mean protection from cisplatin (shift in death) (%) = 5.1; inactive.
LOC254974 scored two-siRNA summed score (-2 to +2) = -1; mean protection from cisplatin (shift in death) (%) = -10.6; inactive.
ABI1 #1 showed two-siRNA summed score (-2 to +2) = 0; mean protection from cisplatin (shift in death) (%) = 15.6; inactive.
After knock-down of ABI1 #2, the record shows two-siRNA summed score (-2 to +2) = 0; mean protection from cisplatin (shift in death) (%) = 22.7; inactive.
HSD17B3 gave two-siRNA summed score (-2 to +2) = -1; mean protection from cisplatin (shift in death) (%) = -13.4; inactive.
SPATA13 showed two-siRNA summed score (-2 to +2) = 0; mean protection from cisplatin (shift in death) (%) = 4.1; inactive.
LOC390205 scored two-siRNA summed score (-2 to +2) = 0; mean protection from cisplatin (shift in death) (%) = 12.2; inactive.
Knock-down of LOC441941 came out at: two-siRNA summed score (-2 to +2) = 0; mean protection from cisplatin (shift in death) (%) = 18.7; inactive.
With knock-down of AOAH, the record shows two-siRNA summed score (-2 to +2) = 1; mean protection from cisplatin (shift in death) (%) = 24.1; inactive.
For DKK1, the entry reads two-siRNA summed score (-2 to +2) = -1; mean protection from cisplatin (shift in death) (%) = -29.3; inactive.
WNK4 gave two-siRNA summed score (-2 to +2) = -1; mean protection from cisplatin (shift in death) (%) = -13.7; inactive.
Depletion of ABHD6 resulted in: two-siRNA summed score (-2 to +2) = 1; mean protection from cisplatin (shift in death) (%) = 2.1; inactive.
Knock-down of RBMXL2 resulted in: two-siRNA summed score (-2 to +2) = 0; mean protection from cisplatin (shift in death) (%) = 7.5; inactive.
For TERF2, the values are two-siRNA summed score (-2 to +2) = 0; mean protection from cisplatin (shift in death) (%) = -1.6; inactive.
SNX12 scored two-siRNA summed score (-2 to +2) = 0; mean protection from cisplatin (shift in death) (%) = -6.3; inactive.
For INPP4B, the values are two-siRNA summed score (-2 to +2) = 0; mean protection from cisplatin (shift in death) (%) = -8.1; inactive.
For MRPL52, the entry reads two-siRNA summed score (-2 to +2) = 1; mean protection from cisplatin (shift in death) (%) = 14.9; inactive.

Look-ups from the list:
Under “Outcome”, HSD17B3 reads inactive
Value for RBMXL2 in “two-siRNA summed score (-2 to +2)”: 0
